Laboratory results: paper PMC7794433, “Peptide signaling without feedback in signal production operates as a true quorum sensing communication system in Bacillus subtilis” (Communications Biology, 2021)

System: ComX biosensor BD2876 (ΔcomQ, srfA-lacZ)
Assay: Biosensor based quantification of ComX concentration in B. subtilis spent medium
Set-up: species or system Bacillus subtilis

With “ADPITRQWGD [ComX, isoprenylated (farnesylated) quorum sensing signal peptide of B. subtilis, HPLC purified from E. coli ED367]” the “ComX concentration per unit of culture optical density” value (B. subtilis) was 10 nM a.u.^−1, the “ComX concentration in spent medium, early exponential growth phase” value (B. subtilis PS-216 ΔcomP, 37 °C CM) was “about 0.1 nM” and the “Stationary phase ComX concentration compared to typical AHL concentrations of Gram-negative bacteria” value (ComX 10 nM in B. subtilis, AHL from refs 35–38) was 100–1000 times. The “Exponent of ComX concentration versus OD650, all points fitted” value (before, when all points were taken into the fitting procedure (incl. < LOD 0.1 nM)) was 2.05±0.10, the “ComX concentration in tested spent medium, example determination” value (example of Supplementary Figure 1, PS-216 ΔcomP spent medium) was 3 nM and the “Parameter b (exponent) of allometric function, ComX concentration versus OD650” value (spent medium of B. subtilis PS-216 ΔcomP, batch fermenter 37 °C, n = 3, data ≥ LOD) was 2.09 ± 0.10 and 2.09. The “Parameter a of allometric function SM = aN^b” value (spent medium of B. subtilis PS-216 ΔcomP, batch fermenter 37 °C, n = 3 biological replicates) was 9.6 ± 0.6 nM a.u.^−2.09 and the “Parameter b (exponent), reanalyzed published data” value (strain JH642, reanalyzed with eq 1, activity of spent medium, ref Bacon Schneider et al. 19) was 1.4 ± 0.4.

“And” between values parts separate entries of the source, which are not always exact repeats. Identical values can stand only once.
